In publication PMC12040169 (PLOS Biology, 2025):
This is one part of the list.

system: T1, CTL2-GFP (C. trachomatis L2/434/Bu, GFP-expressing); parameters: species or system HeLa; Intracellular C. trachomatis growth in HeLa cells, bulk GFP fluorescence relative to DMSO; settings: bulk GFP, single well; 28.5 h, 10 µM; inhibitor
T1 construct: L2/434/Bu, GFP-expressing

Going from `COc1ccccc1C1CC(c2ccccc2)=NN1C(=O)CCC(=O)O` (stereo not drawn) [CBK287088] to `COC(=O)c1ccccc1NC(=O)CSc1nnc(-c2ccccc2)[nH]1` [CBK266338], the “% of control remaining” value rises from 106.375% to 154.547%.

Going from `O=C(Cc1ncc(C(F)(F)F)cc1Cl)NO` [CBK007437] to `FC(F)(F)c1cccc(Sc2ccc(Cl)c(Cl)c2)n1` [CBK089608], the “% of control remaining” value falls from 144.802% to 134.781%.

Compared with `CCOC(=O)c1cnc2c(C)cc(Cl)cc2c1N1CCN(Cc2ccccc2)CC1` [CBK265975], `CCN1CCN(c2ccc(NC(=O)c3cccc(OCc4ccccc4)c3)cc2)CC1` [CBK266471] is higher in “% of control remaining” value: 83.9977% for the first, 160.917% for the second.

First: OCCOc1ccccc1-c1nnco1 [CBK001972]
Second: Cc1ccccc1OC(C)C(=O)Nc1nnc[nH]1 (stereo not drawn) [CBK268605]
The “% of control remaining” value of the first is lower: 102.289% for the first, 117.969% for the second.

Going from `CC(C)(C)c1ccccc1[S+]([O-])c1cc2c(N3CCNCC3)nccc2s1` (stereo not drawn) [CBK200018C] to `Cc1nn(C)c(N2CCNCC2)c1NC(=O)c1cccs1` [CBK050303T], the “% of control remaining” value rises from 100.114% to 126.991%.

First: Oc1ccc(Nc2ncnc3scc(-c4ccccc4)c23)cc1 [CBK269146C]
Second: Cc1ccc(NCc2nc3ccccc3n2Cc2ccccc2)cc1C [CBK263756]
The “% of control remaining” value of the first is higher: 130.122% for the first, 113.745% for the second.

First: CC1CCC(N2CCN(Cc3ccccn3)CC2)CC1 (stereo not drawn) [CBK263473]
Second: O=C(O)/C=C/c1cccc(-c2cncc(N3CCN(Cc4ccccn4)CC3)n2)c1 [CBK066085]
The “% of control remaining” value of the first is lower: 100% for the first, 113.711% for the second.

First: CC(=O)N(C)c1ncc(Br)cc1C(=O)NCC1COc2ccccc2O1 (stereo not drawn) [CBK076558]
Second: COCc1cccc(-c2ncc(OCC3COc4ccccc4O3)nc2N)c1 (stereo not drawn) [CBK145113]
The “% of control remaining” value of the first is higher: 120.145% for the first, 100.064% for the second.

Going from `CC(C)CC(=O)N1CCc2c([nH]c3ccccc23)C12CCN(Cc1ccccc1)C2` (stereo not drawn) [CBK059459] to `O=C(O)c1ccc(/C=N/N2CCN(Cc3ccccc3)CC2)cc1` [CBK265344], the “% of control remaining” value rises from 119.417% to 119.48%.

Compared with `Cc1ccc(C(=O)Nc2cccc(OC(=O)c3cc(S(=O)(=O)N4CCCCC4)ccc3Cl)c2)cc1` [CBK261368], `O=C(NCCN1CCOCC1)c1cccc(S(=O)(=O)N2CCCCCC2)c1` [CBK266668] is higher in “% of control remaining” value: 44.4839% for the first, 173.811% for the second.

Compared with `CCc1noc(C)c1C(=O)N1CCC(NC)C1` (stereo not drawn) [CBK304299C], `Cc1cccn2c(CN(C)C(C)C(N)=O)c(C(=O)N3CCOCC3)nc12` (stereo not drawn) [CBK306592] is higher in “% of control remaining” value: 116.826% for the first, 122.806% for the second.

Going from `O=C(COc1ccccc1)NC(=S)Nc1cccc(-c2nc3ccccc3s2)c1` [CBK264360] to `CN(c1ccccc1)S(=O)(=O)c1cccc(NC(=O)Cc2csc(-c3ccco3)n2)c1` [CBK297792], the “% of control remaining” value rises from 100% to 155.828%.

Compared with `Cc1c(S(=O)(=O)NCc2ccc(C(F)(F)F)c(F)c2)cnn1-c1ccccc1` [CBK062115], `O=S(=O)(Nc1nnn[nH]1)c1ccc(Br)cc1C(F)(F)F` [CBK062388] is lower in “% of control remaining” value: 157.391% for the first, 97.4587% for the second.

Compared with `CN1[C@@H](CCC(=O)N2CCOCC2)CNC(=O)[C@@H]2[C@H]1CCN2C1CCCCC1` [CBK289032], `O=C(C1CCCO1)N1CCCCCC1c1cc(-c2cccs2)on1` (stereo not drawn) [CBK284340] is lower in “% of control remaining” value: 134.619% for the first, 89.5643% for the second.

Going from `c1ccc(OCc2nc3c4c(-c5ccccc5)c(-c5ccccc5)oc4ncn3n2)cc1` [CBK262939] to `Cc1nnc2sc(-c3ccccc3NC(=S)NC(=O)c3cc4ccccc4o3)nn12` [CBK268845], the “% of control remaining” value rises from 100% to 139.749%.

Compared with `Cc1nn(Cc2ccccc2)c(C)c1C(=O)N(C)C` [CBK015942], `CC(=O)Nc1nc(OCCOc2ccccc2)cnc1-c1cnn(C)c1` [CBK145425] is lower in “% of control remaining” value: 127.503% for the first, 114.115% for the second.

Compared with `Cc1cc(C)cc(N(CC(=O)O)S(C)(=O)=O)c1` [CBK263775], `CN(C)S(=O)(=O)NCc1ccc2c(c1)OCO2` [CBK264364] is higher in “% of control remaining” value: 88.8715% for the first, 100% for the second.

Going from `Cc1ccc(S(=O)(=O)NC(C)(C)CSc2nncn2C)cc1` [CBK266366] to `COc1cccc2ncn(Cc3n[nH]c(C)n3)c(=O)c12` [CBK306938], the “% of control remaining” value falls from 141.264% to 122.719%.

Compared with `Cc1ccnc2nc(C(=O)OC(C)C(=O)NC3CC3)nn12` (stereo not drawn) [CBK304998], `Cc1cn2c(=O)c3ncn([C@H]4C[C@@H](O)[C@@H](CO)O4)c3nc2[nH]1` [CBK201320] is higher in “% of control remaining” value: 140.62% for the first, 152.438% for the second.

Compared with `CC(C)CCCC(=O)n1c(=O)n(CCc2c[nH]c3ccccc23)c2ccccc21` [CBK106513], `CCOCCCn1c(SCC(=O)NC(Cc2ccccc2)C(=O)O)nc2ccccc2c1=O` (stereo not drawn) [CBK297132] is lower in “% of control remaining” value: 126.396% for the first, 105.146% for the second.

Compared with `CCSc1ncc(Cl)c(C(=O)N(Cc2cccc(Br)c2)C2CCS(=O)(=O)C2)n1` (stereo not drawn) [CBK268969], `CC1c2ccsc2CCN1C(=O)COc1cccc(Br)c1` (stereo not drawn) [CBK305434] is lower in “% of control remaining” value: 138.052% for the first, 105.083% for the second.

First: CN1C(=O)COc2ccccc2C/C=C/C[C@H]2CNCC[C@H]21 [CBK292076]
Second: CCN(CC)C(=O)CN1CCC(Oc2cncc(OCC3COc4ccccc4O3)n2)C1 (stereo not drawn) [CBK084374]
The “% of control remaining” value of the first is lower: 116.472% for the first, 130.273% for the second.

First: CC(=O)Nc1cccc(-n2nnnc2SC2CCCC2)c1 [CBK305996]
Second: CC(C)NC(=O)[C@H]1CN2CCC1C[C@@H]2Cn1cc(-c2cccc(O)c2)nn1 (stereo partly drawn) [CBK288731]
The “% of control remaining” value of the first is higher: 155.901% for the first, 139.806% for the second.

Going from `CCC1c2ccsc2CCN1CC(O)COCc1ccco1` (stereo not drawn) [CBK303992] to `CCC(O)CNC(=O)c1coc(COc2ccc3sc(C)nc3c2)n1` (stereo not drawn) [CBK307700], the “% of control remaining” value falls from 164.061% to 90.1472%.

Going from `O=S(=O)(N1CCCCCC1)N1CCN(S(=O)(=O)N2CCCCC2)CC1` [CBK269001] to `CN(CCCN1CCCCC1)C(=O)C1Cc2cc(Cl)ccc2O1` (stereo not drawn) [CBK282162], the “% of control remaining” value rises from 82.1185% to 102.422%.

First: Cc1cccc(-c2n[nH]c(=S)n2CCC(=O)Nc2ccc(N3CCCC3=O)c(C)c2)c1 [CBK296733]
Second: COc1c(C)[nH]cc(CN(C)CCC(=O)Nc2cccc(F)c2)c1=O [CBK304201]
The “% of control remaining” value of the first is higher: 124.498% for the first, 109.87% for the second.

Compared with `CC(Oc1ccc(Cl)cc1Cl)C(=O)Nc1ccc(OCC(=O)O)cc1` (stereo not drawn) [CBK266542], `COc1cc(NC(=O)Cc2cccc3ccccc23)c(C(=O)O)cc1OC` [CBK268206] is lower in “% of control remaining” value: 168.802% for the first, 96.6135% for the second.

Compared with `FC(F)(F)c1cccnc1OCCCc1ccncc1` [CBK115782], `CC1CCN(Cc2ccc(-c3nnn(CC(=O)NCc4ccc(C(F)(F)F)cn4)n3)cc2)CC1` [CBK149722T] is higher in “% of control remaining” value: 96.7729% for the first, 109.685% for the second.

First: CCCCNCCn1cnc2c(N)ncnc21 [CBK057447]
Second: CCCCCOc1ccc(C2NC(=O)NC2=O)cc1 (stereo not drawn) [CBK287865]
The “% of control remaining” value of the first is higher: 135.982% for the first, 133.473% for the second.

First: O=[N+]([O-])c1cc([N+](=O)[O-])c(Nc2ccncc2)c([N+](=O)[O-])c1Nc1ccncc1 [CBK278276]
Second: COc1ccc(C(=O)Nn2c(SCC(=O)c3ccc(F)cc3)nc3ccccc3c2=O)cc1 [CBK266688]
The “% of control remaining” value of the first is lower: 101.094% for the first, 120.538% for the second.

Going from `O=C1c2ccccc2C(=O)N1CCCN1CCN(CCCN2C(=O)c3ccccc3C2=O)CC1` [CBK260963] to `COc1ccc(C(=O)C2=C(O)C(=O)N(CCN3CCNCC3)C2c2ccc(Cl)c(Cl)c2)cc1` (stereo not drawn) [CBK264616], the “% of control remaining” value falls from 116.412% to 100%.

Compared with `Clc1cccc(-c2cncc(NCC3CCOCC3)n2)c1` [CBK037237], `CN(C)CCNC(=O)c1cccc(-c2cnc(N)c(N3CCN(C)CC3)n2)c1` [CBK063393] is lower in “% of control remaining” value: 168.046% for the first, 99.8307% for the second.

Compared with `OCc1ccccc1CN1CCOCC1` [CBK264388C], `Cc1ccc2c(CC(=O)N(C)CCN3CCCCC3)coc2c1` [CBK282747] is higher in “% of control remaining” value: 100% for the first, 130.714% for the second.

First: CCNC(=O)N1CC2(CCN(Cc3cc(OC)c(OC)c(OC)c3)CC2)c2ccccc21 [CBK126689]
Second: Oc1ccc2c(c1)C(O)CC1(CCN(CC(O)c3ccc(-c4ccccc4)cc3)CC1)O2 (stereo not drawn) [CBK286351]
The “% of control remaining” value of the first is lower: 98.9914% for the first, 122.623% for the second.

First: O=S1(=O)CCN(Cc2cnn(-c3ccc(OC(F)(F)F)cc3)n2)CC1 [CBK112883]
Second: CN1CCN(/N=C/c2c(C(F)(F)F)[nH]n(-c3nc4ccccc4s3)c2=O)CC1 [CBK263163]
The “% of control remaining” value of the first is lower: 96.6533% for the first, 112.227% for the second.

Going from `CC(Cc1nc(C2(Cl)CC2)cs1)n1cc(Cl)cn1` (stereo not drawn) [CBK304715] to `NC(=O)C1(Cc2cccc(-c3cccs3)c2)CCN(C(=O)COc2ccccc2)CC1` [CBK285741], the “% of control remaining” value falls from 127.795% to 107.08%.

First: CC1(C)CC(=O)C2=C(C1)Nc1ccccc1N(C(=S)NCc1ccco1)C2c1cccnc1 (stereo not drawn) [CBK267342]
Second: COc1ccc(N2C(=O)CC(Nc3ccc(Cc4nc5ccccc5[nH]4)cc3)C2=O)cc1 (stereo not drawn) [CBK266480]
The “% of control remaining” value of the first is higher: 200.887% for the first, 158.016% for the second.

First: O=C(NCC(c1ccccc1)c1ccccc1)N1CCN(c2ccc(F)cc2)CC1 [CBK156415]
Second: CC(=O)Nc1ccc(CNC(=O)CN2CCCC(c3ncc[nH]3)C2)cc1 (stereo not drawn) [CBK307718]
The “% of control remaining” value of the first is lower: 95.4568% for the first, 111.114% for the second.

First: CN(C)Cc1nc2c([nH]1)c(=O)n(C)c(=O)n2C [CBK140662]
Second: Oc1nc2ccc(Oc3ccc4nc(O)c(O)nc4c3)cc2nc1O [CBK293978]
The “% of control remaining” value of the first is lower: 76.9391% for the first, 148.922% for the second.
